Experimental data published in the supplement of paper PMC10849652.
The list shows a part of the results.

Chains of the proteins cited; added tags and fusions are not shown. Lines headed by an entry give the natural chain unless they say otherwise; changes in a name come on top.
UniProt Q8IYQ7: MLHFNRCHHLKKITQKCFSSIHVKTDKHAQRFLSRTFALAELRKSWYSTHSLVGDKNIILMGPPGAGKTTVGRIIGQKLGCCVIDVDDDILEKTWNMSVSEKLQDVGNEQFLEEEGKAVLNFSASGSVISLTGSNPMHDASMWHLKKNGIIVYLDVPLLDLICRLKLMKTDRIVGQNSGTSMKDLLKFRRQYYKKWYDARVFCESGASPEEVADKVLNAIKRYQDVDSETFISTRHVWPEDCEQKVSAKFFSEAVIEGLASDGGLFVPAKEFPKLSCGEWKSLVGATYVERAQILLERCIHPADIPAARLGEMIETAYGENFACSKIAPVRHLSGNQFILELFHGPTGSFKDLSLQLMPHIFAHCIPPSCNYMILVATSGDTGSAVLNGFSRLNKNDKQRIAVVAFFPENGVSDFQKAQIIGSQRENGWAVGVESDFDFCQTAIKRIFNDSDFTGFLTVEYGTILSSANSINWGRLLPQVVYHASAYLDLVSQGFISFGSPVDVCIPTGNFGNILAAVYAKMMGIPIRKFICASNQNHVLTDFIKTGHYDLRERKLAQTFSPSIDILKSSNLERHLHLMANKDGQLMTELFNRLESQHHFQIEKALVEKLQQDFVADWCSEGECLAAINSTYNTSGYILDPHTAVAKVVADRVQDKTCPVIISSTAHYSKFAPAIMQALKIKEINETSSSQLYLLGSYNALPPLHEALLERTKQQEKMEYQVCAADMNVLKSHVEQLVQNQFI
UniProt P29401: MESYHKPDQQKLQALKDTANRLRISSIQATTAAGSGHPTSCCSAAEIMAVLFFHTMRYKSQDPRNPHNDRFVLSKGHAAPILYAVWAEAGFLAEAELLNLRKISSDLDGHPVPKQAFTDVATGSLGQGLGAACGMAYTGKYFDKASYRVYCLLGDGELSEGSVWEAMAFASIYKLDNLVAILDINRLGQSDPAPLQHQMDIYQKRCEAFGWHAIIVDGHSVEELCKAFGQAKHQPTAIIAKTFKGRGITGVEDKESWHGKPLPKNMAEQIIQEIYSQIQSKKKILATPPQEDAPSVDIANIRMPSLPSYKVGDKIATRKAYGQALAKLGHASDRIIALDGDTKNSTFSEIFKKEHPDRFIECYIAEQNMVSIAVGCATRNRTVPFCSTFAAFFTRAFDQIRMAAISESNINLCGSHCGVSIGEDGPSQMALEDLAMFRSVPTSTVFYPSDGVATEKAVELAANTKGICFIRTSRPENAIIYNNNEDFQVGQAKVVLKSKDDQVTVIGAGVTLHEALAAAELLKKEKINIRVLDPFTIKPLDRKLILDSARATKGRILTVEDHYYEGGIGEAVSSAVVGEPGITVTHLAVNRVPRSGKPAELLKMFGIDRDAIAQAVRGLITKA
UniProt Q86XR7, whole entry, looked up: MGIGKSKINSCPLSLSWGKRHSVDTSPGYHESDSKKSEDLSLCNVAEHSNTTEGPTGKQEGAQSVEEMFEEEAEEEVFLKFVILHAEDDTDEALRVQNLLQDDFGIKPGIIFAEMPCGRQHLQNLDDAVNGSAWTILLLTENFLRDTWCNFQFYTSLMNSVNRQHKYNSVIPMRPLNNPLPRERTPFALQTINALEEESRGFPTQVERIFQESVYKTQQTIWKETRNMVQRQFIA
UniProt Q9Y5J9: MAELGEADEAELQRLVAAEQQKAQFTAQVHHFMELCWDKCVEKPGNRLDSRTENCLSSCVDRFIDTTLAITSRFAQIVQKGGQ
UniProt P62380: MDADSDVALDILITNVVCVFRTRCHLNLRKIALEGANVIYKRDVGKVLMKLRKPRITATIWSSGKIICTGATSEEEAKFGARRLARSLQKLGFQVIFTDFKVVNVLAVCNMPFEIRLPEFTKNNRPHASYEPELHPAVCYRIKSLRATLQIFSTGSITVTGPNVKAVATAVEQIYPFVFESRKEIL
UniProt Q5T1C6: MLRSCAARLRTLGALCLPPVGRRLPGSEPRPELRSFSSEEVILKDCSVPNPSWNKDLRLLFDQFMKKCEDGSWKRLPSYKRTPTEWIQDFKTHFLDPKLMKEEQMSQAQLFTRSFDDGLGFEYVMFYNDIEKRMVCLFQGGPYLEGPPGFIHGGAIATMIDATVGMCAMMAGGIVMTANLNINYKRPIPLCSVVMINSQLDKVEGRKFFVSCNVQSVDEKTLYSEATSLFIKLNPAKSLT
UniProt P21980: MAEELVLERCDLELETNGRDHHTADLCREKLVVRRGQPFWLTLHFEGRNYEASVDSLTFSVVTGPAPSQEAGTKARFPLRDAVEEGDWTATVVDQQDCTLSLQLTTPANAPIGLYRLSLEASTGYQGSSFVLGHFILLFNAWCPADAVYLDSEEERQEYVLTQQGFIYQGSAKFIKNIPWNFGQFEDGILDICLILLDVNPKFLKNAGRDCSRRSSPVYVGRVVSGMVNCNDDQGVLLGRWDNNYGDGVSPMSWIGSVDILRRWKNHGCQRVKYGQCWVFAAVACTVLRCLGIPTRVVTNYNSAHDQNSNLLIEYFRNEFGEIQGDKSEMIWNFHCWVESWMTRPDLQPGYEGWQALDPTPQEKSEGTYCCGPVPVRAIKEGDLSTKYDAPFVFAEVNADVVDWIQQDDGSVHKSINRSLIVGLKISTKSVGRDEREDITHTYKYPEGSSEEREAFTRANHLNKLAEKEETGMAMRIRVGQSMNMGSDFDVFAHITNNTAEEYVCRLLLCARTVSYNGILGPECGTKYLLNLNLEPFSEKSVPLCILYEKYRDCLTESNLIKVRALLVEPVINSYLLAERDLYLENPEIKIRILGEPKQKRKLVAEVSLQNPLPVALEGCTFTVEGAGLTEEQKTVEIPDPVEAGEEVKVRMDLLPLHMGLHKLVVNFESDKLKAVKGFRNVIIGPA
UniProt O60343: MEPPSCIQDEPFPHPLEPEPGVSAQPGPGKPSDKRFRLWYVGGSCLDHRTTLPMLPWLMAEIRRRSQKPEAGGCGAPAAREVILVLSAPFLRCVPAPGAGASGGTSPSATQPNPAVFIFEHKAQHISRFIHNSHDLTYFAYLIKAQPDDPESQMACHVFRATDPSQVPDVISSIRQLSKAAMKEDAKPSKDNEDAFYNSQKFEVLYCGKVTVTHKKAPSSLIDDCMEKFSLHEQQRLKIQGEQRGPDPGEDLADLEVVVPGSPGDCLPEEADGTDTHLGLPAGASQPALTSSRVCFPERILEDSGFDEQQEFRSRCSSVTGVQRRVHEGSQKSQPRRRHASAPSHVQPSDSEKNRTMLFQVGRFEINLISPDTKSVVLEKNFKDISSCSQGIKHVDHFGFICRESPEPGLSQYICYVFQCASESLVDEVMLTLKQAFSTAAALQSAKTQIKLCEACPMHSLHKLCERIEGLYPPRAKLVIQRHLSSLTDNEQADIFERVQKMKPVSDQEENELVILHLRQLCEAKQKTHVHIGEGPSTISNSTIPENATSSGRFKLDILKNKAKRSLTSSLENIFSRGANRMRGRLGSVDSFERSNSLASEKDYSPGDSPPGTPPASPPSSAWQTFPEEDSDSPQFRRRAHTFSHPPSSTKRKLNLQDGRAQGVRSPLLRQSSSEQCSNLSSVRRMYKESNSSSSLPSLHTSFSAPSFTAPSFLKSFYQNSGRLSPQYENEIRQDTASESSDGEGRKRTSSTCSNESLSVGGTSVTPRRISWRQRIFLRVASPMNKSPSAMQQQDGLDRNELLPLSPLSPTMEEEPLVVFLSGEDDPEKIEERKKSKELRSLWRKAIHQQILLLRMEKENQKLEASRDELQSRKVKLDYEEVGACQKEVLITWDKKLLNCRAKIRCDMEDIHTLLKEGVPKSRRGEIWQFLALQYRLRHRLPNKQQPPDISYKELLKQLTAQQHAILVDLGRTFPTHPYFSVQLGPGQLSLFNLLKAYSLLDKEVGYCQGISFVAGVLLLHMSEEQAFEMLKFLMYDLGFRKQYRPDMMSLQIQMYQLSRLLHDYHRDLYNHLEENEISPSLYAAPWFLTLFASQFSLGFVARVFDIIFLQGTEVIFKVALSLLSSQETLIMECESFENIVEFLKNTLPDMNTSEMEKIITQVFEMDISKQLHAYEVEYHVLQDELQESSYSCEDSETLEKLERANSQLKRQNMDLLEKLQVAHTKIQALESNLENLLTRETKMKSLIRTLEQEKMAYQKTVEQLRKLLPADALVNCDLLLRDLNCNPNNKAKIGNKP
UniProt Q9Y584: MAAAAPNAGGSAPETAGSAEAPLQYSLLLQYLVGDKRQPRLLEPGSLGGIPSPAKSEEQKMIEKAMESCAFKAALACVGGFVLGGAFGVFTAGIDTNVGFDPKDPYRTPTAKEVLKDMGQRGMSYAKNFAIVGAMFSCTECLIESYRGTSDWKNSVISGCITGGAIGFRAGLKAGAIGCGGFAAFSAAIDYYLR
UniProt P02787, whole entry, looked up: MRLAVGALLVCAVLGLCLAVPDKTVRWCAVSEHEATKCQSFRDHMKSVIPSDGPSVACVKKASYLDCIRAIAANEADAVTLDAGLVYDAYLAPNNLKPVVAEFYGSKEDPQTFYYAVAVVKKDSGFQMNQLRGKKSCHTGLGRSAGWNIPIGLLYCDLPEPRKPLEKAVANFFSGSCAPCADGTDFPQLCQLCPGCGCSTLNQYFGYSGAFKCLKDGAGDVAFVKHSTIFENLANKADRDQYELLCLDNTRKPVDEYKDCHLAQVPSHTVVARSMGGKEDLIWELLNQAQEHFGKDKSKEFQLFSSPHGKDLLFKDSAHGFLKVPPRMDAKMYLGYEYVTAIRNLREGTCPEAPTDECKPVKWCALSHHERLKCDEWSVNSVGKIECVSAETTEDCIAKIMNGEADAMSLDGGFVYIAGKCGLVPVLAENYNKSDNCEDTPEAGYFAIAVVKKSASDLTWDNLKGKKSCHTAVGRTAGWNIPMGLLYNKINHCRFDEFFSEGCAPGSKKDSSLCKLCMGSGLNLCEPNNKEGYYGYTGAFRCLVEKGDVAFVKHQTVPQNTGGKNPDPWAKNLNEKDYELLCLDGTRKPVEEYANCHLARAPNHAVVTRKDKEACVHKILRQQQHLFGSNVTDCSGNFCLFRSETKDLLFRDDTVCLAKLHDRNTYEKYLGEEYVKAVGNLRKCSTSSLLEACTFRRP
UniProt P17987, whole entry, looked up: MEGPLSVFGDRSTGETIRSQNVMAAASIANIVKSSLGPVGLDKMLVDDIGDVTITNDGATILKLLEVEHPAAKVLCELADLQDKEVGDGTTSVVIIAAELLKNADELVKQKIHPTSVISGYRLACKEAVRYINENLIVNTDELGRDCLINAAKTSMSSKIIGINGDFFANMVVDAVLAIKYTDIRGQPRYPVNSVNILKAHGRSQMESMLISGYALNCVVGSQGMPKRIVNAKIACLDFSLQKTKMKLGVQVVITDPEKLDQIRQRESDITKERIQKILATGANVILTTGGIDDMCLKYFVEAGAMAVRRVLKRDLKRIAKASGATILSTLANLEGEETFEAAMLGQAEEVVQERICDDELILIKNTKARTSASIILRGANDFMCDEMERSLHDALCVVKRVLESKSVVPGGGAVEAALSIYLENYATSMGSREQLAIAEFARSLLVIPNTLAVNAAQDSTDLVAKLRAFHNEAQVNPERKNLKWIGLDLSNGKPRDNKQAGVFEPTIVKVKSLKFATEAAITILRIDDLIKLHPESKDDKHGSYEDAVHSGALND
UniProt Q9BV44: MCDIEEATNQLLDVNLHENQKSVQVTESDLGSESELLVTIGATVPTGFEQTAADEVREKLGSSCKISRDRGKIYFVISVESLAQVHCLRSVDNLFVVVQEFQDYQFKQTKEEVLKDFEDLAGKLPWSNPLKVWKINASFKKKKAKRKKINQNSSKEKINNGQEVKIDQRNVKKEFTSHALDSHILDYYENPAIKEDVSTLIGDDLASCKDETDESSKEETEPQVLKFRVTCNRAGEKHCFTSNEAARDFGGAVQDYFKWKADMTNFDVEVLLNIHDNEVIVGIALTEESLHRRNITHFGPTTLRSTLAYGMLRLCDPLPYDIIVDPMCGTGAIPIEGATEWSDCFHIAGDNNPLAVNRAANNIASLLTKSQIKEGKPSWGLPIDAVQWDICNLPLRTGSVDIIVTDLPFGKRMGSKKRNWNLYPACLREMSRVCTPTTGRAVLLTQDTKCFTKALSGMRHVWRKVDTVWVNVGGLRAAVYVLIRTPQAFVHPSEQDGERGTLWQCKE

Columns and labels:
Test in all cases: log2 fold change, soluble protein after heating vs DMSO (PISA); higher = thermal stabilisation; K562 cells, 10 uM, 30 min; active = over 0.2 and 3.5 SD of the protein, either way, in both replicates (recomputed)
[1] = compound: COC1=CC=C(C=C1)CN2C=CC3=C2C=C(C=C3)C(=O)NO
Method in brief: (§1)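 Soluble protein was quantified by TMTpro 16plex LC-MS/MS after channel sums were equalised. It was obtained as the supernatant after 21,000xg for 90 min from pooled aliquots of K562 cells (2×10^6 cells/mL, 10 μM compound, 30 min) heated for 3 min across 48°C-58°C and extracted in PBS with 0.5% NP-40 at 4°C. Thermal stability values are relative to control samples and come from duplicates. They are given as log2 fold changes.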

filanesib = compound: CON(C)C(=O)N1N=C(c2cc(F)ccc2F)S[C@@]1(CCCN)c1ccccc1 [filanesib]
Method in brief: as §1

zotarolimus = compound: CO[C@H]1C[C@@H]2CC[C@@H](C)[C@@](O)(O2)C(=O)C(=O)N2CCCC[C@H]2C(=O)O[C@H]([C@H](C)C[C@@H]2CC[C@H](n3cnnn3)[C@H](OC)C2)CC(=O)[C@H](C)/C=C(\C)[C@@H](O)[C@@H](OC)C(=O)[C@H](C)C[C@H](C)/C=C/C=C/C=C/1C [zotarolimus]
Method in brief: as §1

idasanutlin = compound: COc1cc(C(=O)O)ccc1NC(=O)[C@@H]1N[C@@H](CC(C)(C)C)[C@](C#N)(c2ccc(Cl)cc2F)[C@H]1c1cccc(Cl)c1F [idasanutlin]
Method in brief: as §1

alisertib = compound: COc1cc(Nc2ncc3c(n2)-c2ccc(Cl)cc2C(c2c(F)cccc2OC)=NC3)ccc1C(=O)O [alisertib]
Method in brief: as §1

[2] = compound: COc1cc2nc(-c3cc(F)ccc3O)nc(N[C@@H]3CNC[C@H]3C(C)(C)O)c2cc1OC
Method in brief: as §1

gefitinib = compound: COc1cc2ncnc(Nc3ccc(F)c(Cl)c3)c2cc1OCCCN1CCOCC1 [gefitinib]
Method in brief: as §1

[3] = compound: COc1cccc2cc(-c3nc([C@H]4CC[C@H](C(=O)O)CC4)n4ncnc(N)c34)[nH]c12
Method in brief: as §1

lapatinib = compound: CS(=O)(=O)CCNCc1ccc(-c2ccc3ncnc(Nc4ccc(OCc5cccc(F)c5)c(Cl)c4)c3c2)o1 [lapatinib]
Method in brief: as §1

pictilisib = compound: CS(=O)(=O)N1CCN(Cc2cc3nc(-c4cccc5[nH]ncc45)nc(N4CCOCC4)c3s2)CC1 [pictilisib]
Method in brief: as §1

[4] = compound: CS(=O)(=O)c1ccc(-c2cnc(N)c(C(=O)Nc3ccccc3)n2)cc1
Method in brief: as §1

crizotinib = compound: C[C@@H](Oc1cc(-c2cnn(C3CCNCC3)c2)cnc1N)c1c(Cl)ccc(F)c1Cl [crizotinib]
Method in brief: as §1

[5] = compound: C[C@@H]1COCCN1C2=NC(=NC(=C2)C3(CC3)S(=O)(=O)C)C4=C5C=CNC5=CC=C4
Method in brief: as §1

[6] = compound: C[C@H](C1=CC=C(C=C1)C(=O)NC2=C3C=CNC3=NC=C2)N
Method in brief: as §1

duvelisib = compound: C[C@H](Nc1ncnc2nc[nH]c12)c1cc2cccc(Cl)c2c(=O)n1-c1ccccc1 [duvelisib]
Method in brief: as §1

gandotinib = compound: Cc1cc(Nc2cc(CN3CCOCC3)c3nc(C)c(Cc4ccc(Cl)cc4F)n3n2)n[nH]1 [gandotinib]
Method in brief: as §1

tozasertib = compound: Cc1cc(Nc2cc(N3CCN(C)CC3)nc(Sc3ccc(NC(=O)C4CC4)cc3)n2)n[nH]1 [tozasertib]
Method in brief: as §1

[7] = compound: Cc1cc(SCc2sc(-c3ccc(C(F)(F)F)cc3)nc2C)ccc1OCC(=O)O
Method in brief: as §1

doramapimod = compound: Cc1ccc(-n2nc(C(C)(C)C)cc2NC(=O)Nc2ccc(OCCN3CCOCC3)c3ccccc23)cc1 [doramapimod]
Method in brief: as §1

ispinesib = compound: Cc1ccc(C(=O)N(CCCN)[C@@H](c2nc3cc(Cl)ccc3c(=O)n2Cc2ccccc2)C(C)C)cc1 [ispinesib]
Method in brief: as §1

Measured: log2 fold change

THNSL1 (UniProt Q8IYQ7)
inactive: [1] 0.009 | filanesib -0.149 | zotarolimus 0.036 | idasanutlin 0.037 | alisertib -0.008 | [2] 0.008 | gefitinib 0.025 | [3] 0.01 | lapatinib 0.011 | pictilisib 0.082 | [4] 0.018 | crizotinib -0.022 | [5] 0.075 | [6] -0.054 | duvelisib 0.055 | gandotinib -0.002 | tozasertib -0.026 | [7] 0.035 | doramapimod 0.003 | ispinesib 0.106

THOC1 (UniProt Q96FV9)
inactive: [1] -0.06 | filanesib 0.099 | zotarolimus 0.105 | idasanutlin 0.186 | alisertib 0.052 | [2] -0.087 | gefitinib -0.032 | [3] -0.146 | lapatinib -0.013 | pictilisib -0.132 | [4] -0.04 | crizotinib -0.083 | [5] -0.087 | [6] 0.074 | duvelisib -0.032 | gandotinib 0.245 | tozasertib -0.004 | [7] 0.078 | doramapimod 0.028 | ispinesib -0.059

TET1 (UniProt Q8NFU7)
inactive: [1] 0.424 | filanesib 0.055 | zotarolimus 0.023 | idasanutlin -0.12 | alisertib -0.141 | [2] 0.321 | gefitinib 0.058 | [3] 0.153 | lapatinib -0.11 | pictilisib 0.042 | [4] 0.057 | crizotinib 0.059 | [5] 0.174 | [6] 0.011 | duvelisib 0.18 | gandotinib 0.328 | tozasertib -0.153 | [7] -0.374 | doramapimod 0.076 | ispinesib 0.048

TKT isoform 2 (UniProt P29401)
inactive: [1] -0.023 | filanesib -0.061 | zotarolimus -0.017 | idasanutlin -0.024 | alisertib -0.073 | [2] -0.015 | gefitinib 0.011 | [3] 0.006 | lapatinib -0.028 | pictilisib -0.015 | [4] -0.012 | crizotinib 0.001 | [5] 0.015 | [6] -0.089 | duvelisib 0.025 | gandotinib -0.002 | tozasertib -0.004 | [7] -0.008 | doramapimod 0.003 | ispinesib -0.027

TICAM2 isoform 2 (UniProt Q86XR7)
inactive: [1] 0.086 | filanesib -0.106 | zotarolimus 0.001 | idasanutlin -0.055 | alisertib -0.022 | [2] -0.009 | gefitinib -0.015 | [3] 0.025 | lapatinib -0.024 | pictilisib 0.112 | [4] 0.008 | crizotinib 0.013 | [5] 0.013 | [6] -0.081 | duvelisib -0.028 | gandotinib -0.132 | tozasertib 0.034 | [7] 0.055 | doramapimod -0.028 | ispinesib 0.075

TIMM8B (UniProt Q9Y5J9)
inactive: [1] 0.476 | filanesib 0.084 | zotarolimus 0.071 | idasanutlin 0.031 | alisertib -0.116 | [2] -0.227 | gefitinib 0.025 | [3] -0.044 | lapatinib -0.074 | pictilisib 0.014 | [4] -0.162 | crizotinib 0.109 | [5] 0.059 | [6] -0.174 | duvelisib 0.262 | gandotinib 0.053 | tozasertib 0.067 | [7] -0.009 | doramapimod -0.012 | ispinesib 0.214

TCEA1 (UniProt P23193)
inactive: [1] 0.152 | filanesib -0.036 | zotarolimus 0.008 | idasanutlin 0.021 | alisertib -0.034 | [2] -0.018 | gefitinib -0.01 | [3] -0.011 | lapatinib -0.02 | pictilisib 0.013 | [4] -0.019 | crizotinib 0.029 | [5] 0.002 | [6] -0.044 | duvelisib 0.054 | gandotinib -0.051 | tozasertib -0.021 | [7] -0.018 | doramapimod -0.093 | ispinesib 0.005

TBPL1 (UniProt P62380)
inactive: [1] 0.026 | filanesib 0.009 | zotarolimus 0.043 | idasanutlin -0.1 | alisertib 0.025 | [2] 0 | gefitinib 0.058 | [3] -0.035 | lapatinib -0.008 | pictilisib 0.051 | [4] 0.037 | crizotinib -0.017 | [5] 0.185 | [6] -0.124 | duvelisib 0.043 | gandotinib -0.172 | tozasertib 0.015 | [7] 0.038 | doramapimod -0.073 | ispinesib 0.004

THEM4 (UniProt Q5T1C6)
inactive: [1] 0.018 | filanesib -0.043 | zotarolimus -0.006 | idasanutlin -0.025 | alisertib -0.039 | [2] -0.038 | gefitinib 0.034 | [3] 0.026 | lapatinib 0.044 | pictilisib 0.037 | [4] 0.045 | crizotinib 0.07 | [5] 0.022 | [6] -0.082 | duvelisib -0.007 | gandotinib 0.033 | tozasertib -0.044 | [7] -0.05 | doramapimod -0.075 | ispinesib 0.054

TGM2 (UniProt P21980)
inactive: [1] -0.002 | filanesib -0.053 | zotarolimus -0.021 | idasanutlin -0.051 | alisertib -0.047 | [2] 0.032 | gefitinib 0.009 | [3] 0.014 | lapatinib -0.037 | pictilisib -0.012 | [4] 0.042 | crizotinib -0.012 | [5] 0.059 | [6] -0.048 | duvelisib 0.022 | gandotinib -0.026 | tozasertib 0.008 | [7] -0.025 | doramapimod -0.037 | ispinesib 0.019

TBL1X (UniProt O60907)
inactive: [1] -0.026 | filanesib -0.013 | zotarolimus 0.047 | idasanutlin -0.006 | alisertib -0.021 | [2] 0.044 | gefitinib 0.001 | [3] 0.08 | lapatinib -0.005 | pictilisib 0.039 | [4] -0.026 | crizotinib 0.063 | [5] 0.139 | [6] -0.053 | duvelisib 0.042 | gandotinib 0.003 | tozasertib 0.018 | [7] 0.054 | doramapimod -0.042 | ispinesib 0.035

TBC1D4 (UniProt O60343)
inactive: [1] 0.031 | filanesib -0.065 | zotarolimus 0.033 | idasanutlin 0.01 | alisertib -0.005 | [2] -0.004 | gefitinib -0.049 | [3] -0.015 | lapatinib 0.019 | pictilisib -0.029 | [4] 0.034 | crizotinib -0.051 | [5] 0.005 | [6] -0.002 | duvelisib -0.05 | gandotinib 0.035 | tozasertib 0.039 | [7] 0.004 | doramapimod -0.011 | ispinesib -0.009

TIMM22 (UniProt Q9Y584)
inactive: [1] 0.069 | filanesib -0.039 | zotarolimus 0.055 | idasanutlin -0.03 | alisertib 0.007 | [2] 0.015 | gefitinib 0.009 | [3] 0.012 | lapatinib 0.023 | pictilisib -0.013 | [4] 0.127 | crizotinib -0.067 | [5] 0.067 | [6] -0.325 | duvelisib -0.098 | gandotinib -0.015 | tozasertib 0.028 | [7] 0.062 | doramapimod -0.091 | ispinesib 0.161

TF (UniProt P02787)
inactive: [1] -0.135 | filanesib 0.094 | zotarolimus -0.112 | idasanutlin -0.024 | alisertib -0.092 | [2] 0.301 | gefitinib -0.153 | [3] 0.4 | lapatinib 0.347 | pictilisib 0.027 | [4] -0.213 | crizotinib 0.176 | [5] 0.014 | [6] 0.367 | duvelisib -0.362 | gandotinib 0.01 | tozasertib -0.03 | [7] -0.258 | doramapimod 0.299 | ispinesib -0.043

TCP1 (UniProt P17987)
inactive: [1] 0.003 | filanesib -0.017 | zotarolimus 0.006 | idasanutlin -0.031 | alisertib -0.062 | [2] 0.014 | gefitinib -0.021 | [3] 0.02 | lapatinib -0.009 | pictilisib 0.005 | [4] -0.006 | crizotinib -0.004 | [5] 0.006 | [6] -0.022 | duvelisib 0.012 | gandotinib -0.012 | tozasertib 0.005 | [7] 0.038 | doramapimod -0.009 | ispinesib -0.03

THUMPD3 (UniProt Q9BV44)
inactive: [1] -0.023 | filanesib -0.076 | zotarolimus 0.005 | idasanutlin -0.029 | alisertib -0.044 | [2] -0.032 | gefitinib 0.01 | [3] 0.005 | lapatinib 0.026 | pictilisib -0.03 | [4] -0.009 | crizotinib 0.037 | [5] 0.015 | [6] -0.087 | duvelisib 0.055 | gandotinib -0.003 | tozasertib 0.03 | [7] -0.004 | doramapimod 0.001 | ispinesib 0.037

Looked up one by one from the list above, 2 records:
TCP1 (UniProt P17987)
inactive: [1] 0.003 | filanesib -0.017 | zotarolimus 0.006 | idasanutlin -0.031 | alisertib -0.062 | [2] 0.014 | gefitinib -0.021 | [3] 0.02 | lapatinib -0.009 | pictilisib 0.005 | [4] -0.006 | crizotinib -0.004 | [5] 0.006 | [6] -0.022 | duvelisib 0.012 | gandotinib -0.012 | tozasertib 0.005 | [7] 0.038 | doramapimod -0.009 | ispinesib -0.03

TIMM22 (UniProt Q9Y584)
inactive: [1] 0.069 | filanesib -0.039 | zotarolimus 0.055 | idasanutlin -0.03 | alisertib 0.007 | [2] 0.015 | gefitinib 0.009 | [3] 0.012 | lapatinib 0.023 | pictilisib -0.013 | [4] 0.127 | crizotinib -0.067 | [5] 0.067 | [6] -0.325 | duvelisib -0.098 | gandotinib -0.015 | tozasertib 0.028 | [7] 0.062 | doramapimod -0.091 | ispinesib 0.161
